This note sets out measurements from PubChem BioAssay AID248 (DTP/NCI, 2004).

The list shows only some results of the screen, not a fair sample: it gathers tests that were run many times, whatever their T/C, doses with no T/C, and many T/C values between a quarter and a half above the control. Other doses and runs of a compound stand elsewhere. T/C gives the treated animals as a percentage of the vehicle group. Some doses have a count of surviving animals in place of a T/C: the source holds a T/C of zero for them, seemingly a mark for toxic or unscored doses. Some doses without a T/C left all or most animals alive at the check, yet need not have been tolerated: the source hardly ever lists a survival T/C far under the control, and the zero likely stands for such cases as well. Counts of survivors are from the toxicity check (mostly the fifth day) where no day follows; animals may have died later. Schedule codes are those of the source, taken here to give the interval after Q, in days (D) or hours (H), and the number of doses after X. Some doses were run more than once; the results are listed from low to high. Where survival is the endpoint, this PubChem deposit counts one and a half times the control or more as active, and values a quarter to a half above the control carry no call in these data; other NCI protocols may use other cut-offs. Some T/C values carry the count of animals alive at the toxicity check (mostly the fifth day); without a count, all were alive then.

The test system of the assay is L1210 leukemia ip in BDF1 mice, survival T/C. Description: NCI In Vivo Anticancer Drug Screen. Data for tumor model L1210 Leukemia (intraperitoneal) in B6D2F1 (BDF1) mice. The conditions noted are these: T/C endpoint: mean survival time, higher T/C = longer survival.
[1] abbreviates: dose: 400.0 mg/kg/injection, schedule: Q04DX003 (ip), vehicle: saline with Tween-80.
Where [2] appears, read: dose: 300.0 mg/kg/injection, schedule: Q01DX001 (ip), vehicle: saline.
[3] abbreviates: dose: 35.0 mg/kg/injection, schedule: Q01DX009 (ip), vehicle: saline.
[4] abbreviates: dose: 50.0 mg/kg/injection, schedule: Q01DX009 (ip), vehicle: saline.
[5] abbreviates: dose: 200.0 mg/kg/injection, schedule: Q01DX009 (ip), vehicle: Klucel (hydroxypropylcellulose) (HPC).
Setting [6] is: dose: 400.0 mg/kg/injection, schedule: Q01DX009 (ip), vehicle: Klucel (hydroxypropylcellulose) (HPC).
The mark [7] stands for this setting: dose: 400.0 mg/kg/injection, schedule: Q04DX003 (ip), vehicle: saline.
The mark [8] stands for this setting: dose: 100.0 mg/kg/injection, schedule: Q04DX003 (ip), vehicle: Klucel (hydroxypropylcellulose) (HPC).
Setting [9] is: dose: 400.0 mg/kg/injection, schedule: Q04DX003 (ip), vehicle: Klucel (hydroxypropylcellulose) (HPC).

Turning to `CCCCCCCCCCCCCCCc1cc(=O)n(C)n1C`, the survivor count under setting [1] is listed as 3 of 6.
In the case of `COC(=O)/C=C(\C(=O)OC)n1ccccc1=O`, the survivor count is 0 of 6 (dose: 75.0 mg/kg/injection, schedule: Q01DX001 (ip), vehicle: saline); 1 of 6 (dose: 80.0 mg/kg/injection, schedule: Q01DX001 (ip), vehicle: saline); 0 of 6 (dose: 150.0 mg/kg/injection, schedule: Q01DX001 (ip), vehicle: saline); 0 of 6 under setting [2].
As to `COC(c1ccccc1)[CH]([Hg][Br])C(=O)OC1CC2CCC1(C)C2(C)C` (stereo unspecified), the survivor count (dose: 100.0 mg/kg/injection, schedule: Q01DX001 (ip), vehicle: carboxymethylcellulose (CMC)) is recorded as 1 of 4; the survivor count (dose: 200.0 mg/kg/injection, schedule: Q01DX001 (ip), vehicle: carboxymethylcellulose (CMC)) is given as 1 of 4; the survivor count (dose: 400.0 mg/kg/injection, schedule: Q01DX001 (ip), vehicle: carboxymethylcellulose (CMC)) is 2 of 4.
Turning to `CCC1(O)CC(OC2CC(NC)C(OC3CC(O)C(OC4CC(O)C(O)C(C)O4)C(C)O3)C(C)O2)c2c(cc3c(c2O)C(=O)c2c(O)ccc(O)c2C3=O)C1C(=O)OC` (stereo unspecified), for the setting “dose: 51.2 mg/kg/injection, schedule: Q01DX001 (ip), vehicle: saline”, the T/C was 129 % of control [5 of 6 alive].
For `CCCCC(C#N)(CCCC)C(=O)OCC`, under setting [1], the survivor count is listed as 5 of 5.
Regarding `NNC(=O)Nc1cccnc1`, the survivor count (dose: 150.0 mg/kg/injection, schedule: Q01DX009 (ip), vehicle: saline) is recorded as 6 of 6 and the survivor count (dose: 300.0 mg/kg/injection, schedule: Q01DX009 (ip), vehicle: saline) was 6 of 6.
Take `CC(C)CCCC(C)CCC1C(=O)NC(=O)NC1=O` (stereo unspecified): the survivor count under setting [2] is listed as 1 of 6.
On to `COc1cc2c(c(OC)c1OC)-c1ccc(SC)c(=O)cc1[C@@H](NC1OC(CO)C(O)C(O)C1O)CC2` (stereo partly specified), for which the T/C reads like this: under setting [3], 139 % of control; (dose: 50.0 mg/kg/injection, schedule: Q01DX005 (ip), vehicle: saline, evaluated on day 20) 131 % of control; (dose: 50.0 mg/kg/injection, schedule: Q01DX005 (ip), vehicle: saline, evaluated on day 30) 127 % of control; under setting [4], 147 % of control; (dose: 100.0 mg/kg/injection, schedule: Q01DX005 (ip), vehicle: saline, evaluated on day 20) 136 % of control; (dose: 100.0 mg/kg/injection, schedule: Q01DX005 (ip), vehicle: saline, evaluated on day 30) 129 % of control. In addition, the survivor count was 6 of 6 under setting [3]; 6 of 6 under setting [4]; 6 of 6 (dose: 75.0 mg/kg/injection, schedule: Q01DX009 (ip), vehicle: saline); 5 of 6 (dose: 100.0 mg/kg/injection, schedule: Q01DX009 (ip), vehicle: saline); 6 of 6 (dose: 200.0 mg/kg/injection, schedule: Q01DX005 (ip), vehicle: saline); 0 of 6 (dose: 200.0 mg/kg/injection, schedule: Q01DX009 (ip), vehicle: saline). Moreover, under “dose: 400.0 mg/kg/injection, schedule: Q01DX009 (ip), vehicle: saline”, the survivor count was 0 of 6.
With `CCS(=O)(=O)CC(C)O` (stereo unspecified), the survivor count reads like this: (dose: 100.0 mg/kg/injection, schedule: Q04DX002 (ip), vehicle: saline) 2 of 3; (dose: 200.0 mg/kg/injection, schedule: Q04DX002 (ip), vehicle: saline) 3 of 3; (dose: 400.0 mg/kg/injection, schedule: Q04DX002 (ip), vehicle: saline) 3 of 3.
`CCCCCCCCCCCCCCCCCC(=O)N/N=C/c1ccccc1OC`: the survivor count is, setting by setting: (dose: 100.0 mg/kg/injection, schedule: Q01DX009 (ip), vehicle: Klucel (hydroxypropylcellulose) (HPC)) 6 of 6; under setting [5], 6 of 6; under setting [6], 5 of 6.
For the compound `COc1ccc(S(=O)(=O)N/N=C/C(=O)O)cc1`, the T/C was 128 % of control (dose: 25.0 mg/kg/injection, schedule: Q01DX009 (ip), vehicle: saline with Tween-80); 134 % of control (dose: 50.0 mg/kg/injection, schedule: Q01DX009 (ip), vehicle: saline with Tween-80); 139 % of control (dose: 100.0 mg/kg/injection, schedule: Q01DX009 (ip), vehicle: saline with Tween-80). In addition, under “dose: 200.0 mg/kg/injection, schedule: Q01DX009 (ip), vehicle: saline with Tween-80”, the survivor count is reported as 6 of 6.
For `O=C(Nc1ccc(F)cc1)Nc1ccc(I)cc1`, under setting [5], the survivor count is listed as 5 of 6.
With `CC[N+](CC)(CC)CCOC(=O)C1C2CC3OC(=O)C1C3C2` (stereo unspecified), the survivor count by setting is: (dose: 200.0 mg/kg/injection, schedule: Q04DX003 (ip), vehicle: saline) 3 of 3; under setting [7], 0 of 3.
As for `CC1CCCC[N-]1.CC1CCCC[N-]1.CC1CCCC[N-]1.CC1CCCC[N-]1.N#CS.[Zn+2]` (stereo unspecified), for the setting “dose: 400.0 mg/kg/injection, schedule: Q01DX001 (ip), vehicle: saline”, the survivor count was 0 of 4.
In the case of `CC1(C)N=C(N)N=C(N)N1c1cccc(CCC(=O)Nc2ccc(S(=O)(=O)F)cc2)c1`, the survivor count (dose: 500.0 mg/kg/injection, schedule: Q01DX009 (ip), vehicle: saline) is on record as 3 of 6.
With `Cc1ccc(S(=O)(=O)N2CCN(S(=O)(=O)c3ccc(C)c([N+](=O)[O-])c3)CC2)cc1[N+](=O)[O-]`, the survivor count (dose: 100.0 mg/kg/injection, schedule: Q04DX003 (ip), vehicle: clinical formulation) is 10 of 10.
Turning to `CC(C)CC(C)NCC(C)OC(=O)c1ccc(N)cc1` (stereo unspecified), the survivor count (dose: 150.0 mg/kg/injection, schedule: Q01DX001 (ip), vehicle: other) is listed as 1 of 6 and the survivor count (dose: 300.0 mg/kg/injection, schedule: Q01DX001 (ip), vehicle: other) is listed as 0 of 6.
As for `C=C(Br)CN(CCCC)C(C)=O`, the survivor count is, setting by setting: under setting [8], 6 of 6; under setting [6], 0 of 6; under setting [9], 1 of 6 and 2 of 6.
Take `CC1(C)N=C(N)N=C(N)N1c1cccc(Cl)c1Cl`: the survivor count is, setting by setting: under setting [8], 0 of 6; (dose: 200.0 mg/kg/injection, schedule: Q04DX003 (ip), vehicle: Klucel (hydroxypropylcellulose) (HPC)) 0 of 6; under setting [9], 0 of 6.
Consider `COc1cc(N/C(N)=N\C(N)=NC(C)C)cc(OC)c1OC`, for which the survivor count under setting [7] is listed as 4 of 6.
Consider `O=[N+]([O-])c1ccc(N/N=C/C23CC4CC(CC(C4)C2)C3)c([N+](=O)[O-])c1`, for which the survivor count (dose: 200.0 mg/kg/injection, schedule: Q01DX001 (ip), vehicle: Klucel (hydroxypropylcellulose) (HPC)) was 3 of 3.
With `CC1C(C)N1P(I)(c1ccccc1)(c1ccccc1)c1ccccc1` (stereo unspecified), the survivor count (dose: 5.0 mg/kg/injection, schedule: Q01DX001 (ip), vehicle: carboxymethylcellulose (CMC)) was 1 of 6; the survivor count (dose: 10.0 mg/kg/injection, schedule: Q01DX001 (ip), vehicle: carboxymethylcellulose (CMC)) is listed as 2 of 6; the survivor count (dose: 15.0 mg/kg/injection, schedule: Q01DX001 (ip), vehicle: carboxymethylcellulose (CMC)) is given as 2 of 6; the survivor count (dose: 30.0 mg/kg/injection, schedule: Q01DX001 (ip), vehicle: carboxymethylcellulose (CMC)) is listed as 0 of 6; the survivor count (dose: 60.0 mg/kg/injection, schedule: Q01DX001 (ip), vehicle: carboxymethylcellulose (CMC)) is on record as 0 of 6; the survivor count (dose: 75.0 mg/kg/injection, schedule: Q01DX001 (ip), vehicle: carboxymethylcellulose (CMC)) is reported as 0 of 6. The survivor count is 0 of 6 (dose: 150.0 mg/kg/injection, schedule: Q01DX001 (ip), vehicle: carboxymethylcellulose (CMC)) and 0 of 6 (dose: 300.0 mg/kg/injection, schedule: Q01DX001 (ip), vehicle: carboxymethylcellulose (CMC)).
For the compound `Cc1ccc2c3c1C(O)C(C(N)=O)C3CCS2` (stereo unspecified), the survivor count (dose: 100.0 mg/kg/injection, schedule: Q01DX001 (ip), vehicle: saline) is given as 4 of 4.
